The values below come from PMC8754431.

Sequences of proteins named here, by UniProt entry; tags and fusion partners are left off. A change or cut given only in a name is not applied to a line headed by its entry.
UniProt A8JFR3: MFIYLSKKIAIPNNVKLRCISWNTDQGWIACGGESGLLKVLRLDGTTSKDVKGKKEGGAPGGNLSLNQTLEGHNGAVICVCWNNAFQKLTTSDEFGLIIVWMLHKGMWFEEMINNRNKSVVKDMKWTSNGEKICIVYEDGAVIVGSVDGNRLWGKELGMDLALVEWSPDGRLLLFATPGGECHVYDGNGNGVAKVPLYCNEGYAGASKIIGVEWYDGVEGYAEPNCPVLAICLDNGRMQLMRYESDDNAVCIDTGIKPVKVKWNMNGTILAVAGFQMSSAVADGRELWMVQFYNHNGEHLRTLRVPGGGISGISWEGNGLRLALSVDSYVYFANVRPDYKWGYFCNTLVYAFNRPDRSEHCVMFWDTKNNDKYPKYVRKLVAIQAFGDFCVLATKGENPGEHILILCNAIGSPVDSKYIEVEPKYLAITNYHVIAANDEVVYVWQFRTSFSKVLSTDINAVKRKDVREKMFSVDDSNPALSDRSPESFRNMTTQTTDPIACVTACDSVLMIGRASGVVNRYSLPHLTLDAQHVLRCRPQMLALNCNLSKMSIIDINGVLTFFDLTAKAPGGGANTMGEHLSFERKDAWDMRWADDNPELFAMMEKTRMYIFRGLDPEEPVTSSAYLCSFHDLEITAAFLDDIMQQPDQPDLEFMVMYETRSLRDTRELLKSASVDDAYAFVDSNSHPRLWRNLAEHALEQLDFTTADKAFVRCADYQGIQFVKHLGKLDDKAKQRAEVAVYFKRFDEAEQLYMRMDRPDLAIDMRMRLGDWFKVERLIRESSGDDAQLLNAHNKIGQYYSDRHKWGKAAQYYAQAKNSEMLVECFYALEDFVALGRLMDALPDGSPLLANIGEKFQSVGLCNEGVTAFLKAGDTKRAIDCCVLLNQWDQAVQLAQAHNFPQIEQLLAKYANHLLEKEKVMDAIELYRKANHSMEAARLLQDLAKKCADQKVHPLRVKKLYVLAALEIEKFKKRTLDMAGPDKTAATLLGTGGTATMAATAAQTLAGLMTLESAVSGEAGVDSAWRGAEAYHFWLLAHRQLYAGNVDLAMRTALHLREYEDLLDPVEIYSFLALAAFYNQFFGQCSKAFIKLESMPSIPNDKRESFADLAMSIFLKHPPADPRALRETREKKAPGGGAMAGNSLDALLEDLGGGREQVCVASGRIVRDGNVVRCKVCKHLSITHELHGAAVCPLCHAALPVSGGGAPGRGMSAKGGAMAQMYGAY

Experiment [1] concerns the target T1, C. reinhardtii His-GFP-IFT43 (from mammalian cells) (C. reinhardtii) (UniProt A8HYP5).
T1 sequence: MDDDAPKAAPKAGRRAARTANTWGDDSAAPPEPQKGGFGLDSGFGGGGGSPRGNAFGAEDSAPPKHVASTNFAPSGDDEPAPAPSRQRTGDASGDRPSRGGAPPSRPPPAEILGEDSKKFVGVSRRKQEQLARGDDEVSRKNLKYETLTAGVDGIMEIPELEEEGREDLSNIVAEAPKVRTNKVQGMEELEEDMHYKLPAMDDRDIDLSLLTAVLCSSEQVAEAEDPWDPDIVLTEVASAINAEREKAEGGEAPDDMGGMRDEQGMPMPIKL
Briefly: SEC; His-GFP-IFT43, IFT121 and IFT139 co-expressed in HEK293S; purified by the His-tag on IFT43 (TALON), Q ion exchange, then Superose 6 Increase in 10 mM HEPES pH 7.5, 150 mM NaCl, 2 mM MgCl2, 1 mM DTT, 5% glycerol; peak fractions by SDS-PAGE. Background: SEC sorts molecules by how far they enter the pores of the column.

Experiment [2] addresses T2, C. reinhardtii His-IFT43 (from insect cells) (C. reinhardtii) (UniProt A8HYP5).
T2 sequence: T1 sequence
Briefly: SEC; His-IFT43, IFT121 and IFT139 co-expressed in sf21 cells by co-infection with two baculoviruses; purified by Ni-NTA affinity, ion exchange and SEC.

Results are given in words; binding and its absence hold for the method and conditions named. A result given as binding can be weak or reduced; the word gives no strength. Where a sequence is shown, tags or fusion partners need not be part of it.

Consider “C. reinhardtii IFT121 (from mammalian cells) (from UniProt A8JFR3)”, for which, in experiment [1], the binding result is recorded as “binds”.
On to “C. reinhardtii IFT121 (from insect cells) (from UniProt A8JFR3)”, for which, in experiment [2], the binding entry was “binds”.
